The target of this experiment is T1, Flag-tagged LHPP (phospholysine phosphohistidine inorganic pyrophosphate phosphatase) (human) (UniProt Q9H008).
T1 sequence: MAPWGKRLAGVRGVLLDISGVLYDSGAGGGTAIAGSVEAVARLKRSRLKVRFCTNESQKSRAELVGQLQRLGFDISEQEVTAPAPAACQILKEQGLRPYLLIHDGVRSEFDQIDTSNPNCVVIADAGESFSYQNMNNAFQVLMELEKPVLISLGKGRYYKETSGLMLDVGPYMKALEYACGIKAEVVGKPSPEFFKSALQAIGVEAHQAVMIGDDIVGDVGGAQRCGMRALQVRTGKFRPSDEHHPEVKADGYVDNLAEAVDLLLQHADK
Nature of the experiment: co-IP; IP with Flag-LHPP in Mum2b control and Mum2b LHPP-Flag-overexpressing cells; ACO2 detected.

These are yes or no findings as the source states them, for the method shown. Binding seen in cells or lysates may run through a third protein. Some binding calls cover weakened binding; strength is not graded here. Where a sequence is shown, tags or fusion partners need not be part of it.

B1: mitochondrial aconitate hydratase 2 (aconitase 2, ACO2) (enzyme, UniProt Q99798 28-780)
chain: QRAKVAMSHFEPNEYIHYDLLEKNINIVRKRLNRPLTLSEKIVYGHLDDPASQEIERGKSYLRLRPDRVAMQDATAQMAMLQFISSGLSKVAVPSTIHCDHLIEAQVGGEKDLRRAKDINQEVYNFLATAGAKYGVGFWKPGSGIIHQIILENYAYPGVLLIGTDSHTPNGGGLGGICIGVGGADAVDVMAGIPWELKCPKVIGVKLTGSLSGWSSPKDVILKVAGILTVKGGTGAIVEYHGPGVDSISCTGMATICNMGAEIGATTSVFPYNHRMKKYLSKTGREDIANLADEFKDHLVPDPGCHYDQLIEINLSELKPHINGPFTPDLAHPVAEVGKVAEKEGWPLDIRVGLIGSCTNSSYEDMGRSAAVAKQALAHGLKCKSQFTITPGSEQIRATIERDGYAQILRDLGGIVLANACGPCIGQWDRKDIKKGEKNTIVTSYNRNFTGRNDANPETHAFVTSPEIVTALAIAGTLKFNPETDYLTGTDGKKFRLEAPDADELPKGEFDPGQDTYQHPPKDSSGQHVDVSPTSQRLQLLEPFDKWDGKDLEDLQILIKVKGKCTTDHISAAGPWLKFRGHLDNISNNLLIGAINIENGKANSVRNAVTQEFGPVPDTARYYKKHGIRWVVIGDENYGEGSSREHAALEPRHLGGRAIITKSFARIHETNLKKQGLLPLTFADPADYNKIHPVDKLTIQGLKDFTPGKPLKCIIKHPNGTQETILLNHTFNETQIEWFRAGSALNRMKELQQ
For the molecule B1, the binding entry was “binds”.

(Values after PMC12451111.)
